Our source for the binding values is article PMC9108620.

Chains of the proteins cited; added tags and fusions are not shown. Lines headed by an entry give the natural chain unless they say otherwise; changes in a name come on top. A line that says so, or that is headed by a name, gives the form on record, which may keep a tag or linker.
UniProt Q99816: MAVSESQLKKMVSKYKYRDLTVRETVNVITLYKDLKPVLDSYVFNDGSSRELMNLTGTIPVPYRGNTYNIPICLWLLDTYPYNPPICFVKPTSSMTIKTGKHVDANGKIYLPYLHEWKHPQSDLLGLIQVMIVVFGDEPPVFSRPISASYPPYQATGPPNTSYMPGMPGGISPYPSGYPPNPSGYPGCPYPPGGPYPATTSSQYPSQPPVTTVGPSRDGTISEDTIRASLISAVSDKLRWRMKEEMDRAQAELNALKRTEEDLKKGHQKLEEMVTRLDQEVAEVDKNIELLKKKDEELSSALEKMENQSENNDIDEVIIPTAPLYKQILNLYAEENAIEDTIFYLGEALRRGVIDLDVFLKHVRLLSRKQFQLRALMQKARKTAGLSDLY
GFP-tagged SPHK1, wild type (Q9NYA1-2, form named): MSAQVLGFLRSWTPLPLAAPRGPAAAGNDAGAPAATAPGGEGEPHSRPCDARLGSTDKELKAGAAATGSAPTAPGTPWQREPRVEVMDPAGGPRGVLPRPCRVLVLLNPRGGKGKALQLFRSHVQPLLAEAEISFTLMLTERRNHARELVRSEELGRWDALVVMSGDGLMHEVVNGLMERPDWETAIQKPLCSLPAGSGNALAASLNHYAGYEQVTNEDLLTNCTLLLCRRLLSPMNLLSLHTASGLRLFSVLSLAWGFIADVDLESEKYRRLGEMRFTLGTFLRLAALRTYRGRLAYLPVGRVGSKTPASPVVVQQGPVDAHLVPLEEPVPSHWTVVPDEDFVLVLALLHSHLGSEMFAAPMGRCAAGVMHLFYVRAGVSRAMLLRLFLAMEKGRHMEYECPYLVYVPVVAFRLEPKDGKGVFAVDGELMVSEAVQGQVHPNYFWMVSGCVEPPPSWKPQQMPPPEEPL

The target in experiment [1] is tumor susceptibility gene 101 protein (TSG101), endogenous in HeyA8 cells (human (endogenous in HeyA8)) (UniProt Q99816). Kind of experiment: proximity ligation; in situ PLA in HeyA8 cells with target-specific antibodies against SPHK1 and TSG101; red PLA dots counted.
The target in another experiment is GFP-tagged TSG101 (UniProt Q99816). Kind of experiment: co-IP; GFP-Trap beads on cells expressing GFP-tagged SPHK1 or TSG101-GFP; partners detected by immunoblotting; the crosslinker DTSSP stabilized the interaction. (A western blot detects proteins with antibodies after separation by electrophoresis.)
Experiment [2] has as its target GFP-tagged SPHK1, wild type (UniProt Q9NYA1). In words: pull-down; GFP-Trap pulldown from HeyA8 cells transfected with wild-type or PTAP-mutated SPHK1 plasmids; TSG101 detected by western blotting.
For experiment [3] the target is unchanged. In words: co-IP; GFP-Trap beads on cells expressing GFP-tagged SPHK1 or TSG101-GFP; partners detected by immunoblotting; the crosslinker DTSSP stabilized the interaction.

No constants are given. Whether binding was seen depends on the method and setting. Binding seen in cells or lysates may run through a third protein. Some binding calls cover weakened binding; strength is not graded here.

In the case of “sphingosine kinase-1 (SPHK1), endogenous in HeyA8 cells (from UniProt Q9NYA1-2 1-470) (enzyme)”, the binding result (in experiment [1]; with GFP-tagged TSG101) was “binds” in each case.
For “tumor susceptibility gene 101 protein (TSG101), endogenous in HeyA8 cells (from UniProt Q99816 1-390)”, the binding result in experiment [2] and in experiment [3] was “binds” throughout.
